One assay has as its target T1, aldolase A-Flag (human) (UniProt P04075).
T1 sequence: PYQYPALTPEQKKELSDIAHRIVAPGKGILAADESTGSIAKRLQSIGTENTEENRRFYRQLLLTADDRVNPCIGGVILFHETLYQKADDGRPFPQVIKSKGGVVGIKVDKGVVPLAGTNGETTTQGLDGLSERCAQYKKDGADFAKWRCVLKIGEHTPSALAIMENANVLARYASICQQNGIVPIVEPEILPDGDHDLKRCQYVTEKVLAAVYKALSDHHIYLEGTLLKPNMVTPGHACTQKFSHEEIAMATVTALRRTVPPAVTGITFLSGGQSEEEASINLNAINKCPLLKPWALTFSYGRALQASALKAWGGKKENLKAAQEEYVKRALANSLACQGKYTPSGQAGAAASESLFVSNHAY
Description: co-IP; HEK293T cells co-transfected with LOXL2-HA or L2Δ13-HA and Flag-tagged glycolytic enzyme; whole cell lysates immunoprecipitated with anti-Flag, western blotting. A general note: In western blotting, separated proteins are transferred to a membrane and probed.

In the next assay the target is T2, GST-aldolase A (human) (UniProt P04075).
T2 sequence: T1 sequence
Description: pull-down; Purified GST-aldolase A or GST from bacteria on glutathione resins, incubated with immunopurified LOXL2-Flag or L2Δ13-Flag from HEK293T at 4 °C for 2 h; immunoblot with anti-Flag; both purified.

These are yes or no findings as the source states them, for the method shown. A result given as binding can be weak or reduced; the word gives no strength. Where a sequence is shown, tags or fusion partners need not be part of it. For some assays here: Binding seen in cells or lysates may run through a third protein.

On to “L2Δ13-HA (LOXL2 splice variant lacking exon 13) (human) (enzyme)”, for which the binding result with aldolase A-Flag (human) is “binds”. As to L2Δ13-Flag (human) (enzyme), the binding entry with GST-aldolase A (human) is recorded as “binds”.
